Source: patent publication US8877785B2, “Methods and compositions for enhancing sensitivity of cytotoxic drugs with timely combinatorial therapy with carboxyamidotriazole orotate” (Tactical Therapeutics Inc, priority 2009, dated 2014)
For at least one compound, name, drawing or mass did not settle the structure.

Test system: human LOX IMVI melanoma xenografts
Assay: Antitumor activity against SC-implanted human LOX IMVI melanoma xenografts (experiment TTI-6A)
Format: in vivo, mice
Settings: temozolomide 90 and 60 mg/kg/dose oral once every four days, three treatments
Source text: The purpose of the experiment TTI-6A was to evaluate the antitumor activity of CTO when administered in combination with temozolomide against subcutaneously (SC)-implanted human LOX IMVI melanoma xenografts in female, athymic NCr-nu/nu mice. Female six-week-old athymic NCr-nu/nu mice were purchased from Charles River Laboratories (Wilmington, Mass.). Human LOX IMVI melanoma cells were maintained as an ascites passage. […] The day of tumor fragment implantation was designated as Day 0.
CTO was administered to mice by exact individual animal's body weight on each day of treatment, with the injection volume being 0.1 mL/10 g body weight. temozolomide dosing formulations were administered to mice within 30 minutes of formulation by exact individual body weight on each day of treatment, with the injection volume being 0.2 mL/10 g body weight.
The study consisted of nine groups of ten mice per group. […]
The SC tumors were measured and the animals were weighed two times a week. Tumor volume was determined by the formula for an ellipsoid sphere: L×W^2/2=mm^3, where L and W refer to the larger and smaller perpendicular dimensions collected at each measurement. […]
Parameters Evaluated—Number of nonspecific deaths, number of complete tumor regressions, number of tumor-free survivors on Day 35, and the median time for the tumors to reach four tumor mass doublings were determined. […]

## Cn1nnc2c(C(N)=O)ncn2c1=O [temozolomide]
  inhibition of the growth of the human LOX IMVI melanoma xenografts (in words): measurable, dose-dependent inhibition
